Reference: patent US9884126B2, “Anti-wall teichoic antibodies and conjugates” (priority 2013, dated 2018)
Some of these results come from one statement about several compounds together.

Tested on: USA300 strain of MRSA (NRS384)
Assay: In vitro macrophage assay (intracellular killing of opsonized MRSA)
Type: cell-based, Staphylococcus aureus
Settings: titration 10 μg/mL to 0.003 μg/mL
Method: Peritoneal macrophages were isolated from the peritoneum of 6-8 week old Balb/c mice (Charles River Laboratories, Hollister, Calif.). To increase the yield of macrophages, mice were pre-treated by intraperitoneal injection with 1 mL of thioglycolate media (Becton Dickinson). The thioglycolate media was prepared at a concentration of 4% in water, sterilized by autoclaving, and aged for 20 days to 6 months prior to use. Peritoneal macrophages were harvested 4 days post treatment with thioglycolate by washing the peritoneal cavity with cold phosphate buffered saline. Macrophages were plated in Dulbecco's Modified Eagle Medium (DMEM) supplemented with 10% Fetal Calf Serum, and 10 mM HEPES, without antibiotics, at a density of 4×10^5 cells/well in 24 well culture dishes. Macrophages were cultured over night to permit adherence to the plate. This assay was also utilized to test intracellular killing in non-phagocytic cell types. MG63 (CRL-1427) and A549 (CCL185) cell lines were obtained from ATCC and maintained in RPMI 1640 tissue culture media supplemented with 10 mM Hepes and 10% Fetal Calf Serum (RPMI-10). HUVEC cells were obtained from Lonza and maintained in EGM Endothelial Cell Complete Media (Lonza, Walkersville, Md.).

## thio-S4497-HC-A118C-MC-vc-PABC-(pipBOR) [S4497-pipBOR AAC 102]
  AAC concentration at which optimal killing occurred: more than 2 μg/mL
